The record followed here is patent US7732504B2, “Functionalized photoinitiators” (Ciba Specialty Chemicals Corporation, priority 2004, dated 2010).

The nature of this series: Odor of the cured film (blue offset printing ink). Further details: key: 1 (odorless); 3 (strong odor). As to conditions: scale 1 to 3.

For `CSc1ccc(C(=O)C(C)(C)N2CCOCC2)cc1` [Irgacure 907], the odor (conc 4.0 %) is listed as 2-3.

As for `CCC(Cc1ccccc1)(C(=O)c1ccc(NCCO)cc1)N(C)C` (centres unmarked) [Example 1, 2-benzyl-1-[4-(2-hydroxyethylamino)phenyl]-2-dimethylamino-1-butanone], the odor was 1 (conc 3.0 %) and 1 (conc 4.0 %).

With `CCC(Cc1ccccc1)(C(=O)c1ccc(N2CCOCC2)cc1)N(C)C` (centres unmarked) [Irgacure 369, 2-benzyl-2-(dimethylamino)-1-[4-(4-morpholinyl)phenyl]-1-butanone], the odor (conc 3.0 %) amounted to 1 and the odor (conc 4.0 %) was determined as 1.
